# Experimental data from publication PMC7819943, “Rice protein-binding microarrays: a tool to detect cis-acting elements near promoter regions in rice”.
# By UniProt entry, the sequences of proteins in these tests, tags left out.
# UniProt Q0JBA9, entry or part of it: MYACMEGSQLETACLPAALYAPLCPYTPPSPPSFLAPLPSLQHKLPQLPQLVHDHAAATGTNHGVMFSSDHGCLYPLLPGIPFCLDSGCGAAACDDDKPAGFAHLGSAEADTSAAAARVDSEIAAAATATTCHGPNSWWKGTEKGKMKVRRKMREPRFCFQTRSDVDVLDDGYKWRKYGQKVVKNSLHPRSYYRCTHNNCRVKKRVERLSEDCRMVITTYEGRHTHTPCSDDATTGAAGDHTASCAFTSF
# The list shows a part of the results.
# Biological target: OsWRKY34 (Oryza sativa, UniProt Q0JBA9 1-250)
# Experiment: protein-binding microarray (RPBM); PBS, 2% BSA, 51.3 ng/ul salmon testes DNA, 50 uM zinc acetate, 200 nM TF, 25 C, 1 h; high values mean tight binding
# Conditions: protein: recombinant; tags: N-terminal polyhistidine and DsRed monomer fusion (pET32a); label: CyDye5-dUTP incorporated in the synthesized complementary strand; 3' TTTTT single-stranded linker to array surface; dsDNA, one strand shown
# Summary of the method: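 Binding signal here means per-feature fluorescence intensity in arbitrary units. The values were read on an Axon 4000B scanner after a custom Agilent array, double-stranded by primer extension with Cy5-dUTP, was incubated with 200 nM protein at 25 °C for 1 h in PBS with 2% BSA, salmon testes DNA and 50 µM zinc acetate, then washed. The proteins were transcription factors with an N-terminal polyhistidine tag and DsRed, expressed in E. coli BL21-CodonPlus and purified on Ni–NTA.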
row,Sequence,binding signal
1,CAAGTTGTTTTGTTTTTTGTCAGTCGTCAGGCAGCACACACGGAGTCACCTAGTGCAG,10500 fluorescence intensity (a.u.)
2,GCCGCCGCCGCCGCCCGCGCCGATCCCCATCCATCCCGCACGGAGTCACCTAGTGCAG,8970 fluorescence intensity (a.u.)
3,CCGTTTCATCTTTTCTTTAGCCTATATTGCAATTTTTGTACGGAGTCACCTAGTGCAG,10500 fluorescence intensity (a.u.)
4,GACCCCATGTTCTTGTCTCCTCATGACACACTGGCCATGTCGGAGTCACCTAGTGCAG,9670 fluorescence intensity (a.u.)
5,TATTTTCCTTCAGGGCTGTGGGCGGTGGGCCACAAAACATCGGAGTCACCTAGTGCAG,8950 fluorescence intensity (a.u.)
6,TTTCTTTTGTGCTCTTCTTTCTGTCACAGATCATACACCCCGGAGTCACCTAGTGCAG,8910 fluorescence intensity (a.u.)
7,TCACCCAACCAATCCGCCGCCGCCACCTCACCGCGCCAATCGGAGTCACCTAGTGCAG,9000 fluorescence intensity (a.u.)
8,ACGATCAGTGTCATCACAGGGCGGCGGGGTTCCTATCCATCGGAGTCACCTAGTGCAG,13200 fluorescence intensity (a.u.)
9,AGATCCCGCCGTGCAGATTGCTTCCGAGTCCTTAGCATTTCGGAGTCACCTAGTGCAG,9760 fluorescence intensity (a.u.)
10,TTCTCATCTTGGTTTCTTCCTAGTTTCGGGAGAGGATTTTCGGAGTCACCTAGTGCAG,9290 fluorescence intensity (a.u.)
11,GGACCCACTTCCAGCGGCTCTTCCACTCCACCACAACACACGGAGTCACCTAGTGCAG,8370 fluorescence intensity (a.u.)
12,TCTTTTGAGTCTTTATCTCTCTTAAAATTTTTGTGTTTTTCGGAGTCACCTAGTGCAG,14500 fluorescence intensity (a.u.)
13,GATGCAGATTGTGTCTCGCAGAAATTTCCTTCCTTGTTTCCGGAGTCACCTAGTGCAG,10500 fluorescence intensity (a.u.)
14,ATGATCCGTGCTCCCTGATTTTGTTGACTAATCCAGACATCGGAGTCACCTAGTGCAG,10100 fluorescence intensity (a.u.)
15,GTCATCCCACCCACTCACCCACCCACCCACCCTGATCGCACGGAGTCACCTAGTGCAG,12600 fluorescence intensity (a.u.)
16,TCCGCTCGGATTCCGCTCTTCTTCTTCTTCTCCGTCTCCGCGGAGTCACCTAGTGCAG,9100 fluorescence intensity (a.u.)
17,TAGCTAGTATTTTTCTATTTTTCTCGCTAATAAGGTTGACCGGAGTCACCTAGTGCAG,9740 fluorescence intensity (a.u.)
18,TTATTATTATTCCAGATTTCCAGTGCTAATCTGCGCTTCTCGGAGTCACCTAGTGCAG,8440 fluorescence intensity (a.u.)
19,GCCTCAGCTTTTTTACCACTCAGTTCGCATGCCCTCTATACGGAGTCACCTAGTGCAG,13700 fluorescence intensity (a.u.)
20,GCCACCGTCCGATGCAGCCCACTTCCAAGTCGGAGAGCGCCGGAGTCACCTAGTGCAG,8280 fluorescence intensity (a.u.)
21,GCTTGATGCGCATGGGTTGGGTCATCCTTTTGGCATGGCACGGAGTCACCTAGTGCAG,12600 fluorescence intensity (a.u.)
22,CGCCACCAACCGCGCCGCCCACCGCCCACGACCTCCACGCCGGAGTCACCTAGTGCAG,9050 fluorescence intensity (a.u.)
23,CCATGGCTTTCCCGTGCCCTGTACTTCTGTACACGAAACTCGGAGTCACCTAGTGCAG,8380 fluorescence intensity (a.u.)

# An excerpt of these results, with tabs:
row	Sequence	binding signal
2	GCCGCCGCCGCCGCCCGCGCCGATCCCCATCCATCCCGCACGGAGTCACCTAGTGCAG	8970 fluorescence intensity (a.u.)
3	CCGTTTCATCTTTTCTTTAGCCTATATTGCAATTTTTGTACGGAGTCACCTAGTGCAG	10500 fluorescence intensity (a.u.)
4	GACCCCATGTTCTTGTCTCCTCATGACACACTGGCCATGTCGGAGTCACCTAGTGCAG	9670 fluorescence intensity (a.u.)
5	TATTTTCCTTCAGGGCTGTGGGCGGTGGGCCACAAAACATCGGAGTCACCTAGTGCAG	8950 fluorescence intensity (a.u.)
6	TTTCTTTTGTGCTCTTCTTTCTGTCACAGATCATACACCCCGGAGTCACCTAGTGCAG	8910 fluorescence intensity (a.u.)
7	TCACCCAACCAATCCGCCGCCGCCACCTCACCGCGCCAATCGGAGTCACCTAGTGCAG	9000 fluorescence intensity (a.u.)
